# From patent US20030181369A1 (published 2003)
# Chains of the proteins cited; added tags and fusions are not shown. Lines headed by an entry give the natural chain unless they say otherwise; changes in a name come on top. Residues count along the entry.
# UniProt P53712, residues 21-798: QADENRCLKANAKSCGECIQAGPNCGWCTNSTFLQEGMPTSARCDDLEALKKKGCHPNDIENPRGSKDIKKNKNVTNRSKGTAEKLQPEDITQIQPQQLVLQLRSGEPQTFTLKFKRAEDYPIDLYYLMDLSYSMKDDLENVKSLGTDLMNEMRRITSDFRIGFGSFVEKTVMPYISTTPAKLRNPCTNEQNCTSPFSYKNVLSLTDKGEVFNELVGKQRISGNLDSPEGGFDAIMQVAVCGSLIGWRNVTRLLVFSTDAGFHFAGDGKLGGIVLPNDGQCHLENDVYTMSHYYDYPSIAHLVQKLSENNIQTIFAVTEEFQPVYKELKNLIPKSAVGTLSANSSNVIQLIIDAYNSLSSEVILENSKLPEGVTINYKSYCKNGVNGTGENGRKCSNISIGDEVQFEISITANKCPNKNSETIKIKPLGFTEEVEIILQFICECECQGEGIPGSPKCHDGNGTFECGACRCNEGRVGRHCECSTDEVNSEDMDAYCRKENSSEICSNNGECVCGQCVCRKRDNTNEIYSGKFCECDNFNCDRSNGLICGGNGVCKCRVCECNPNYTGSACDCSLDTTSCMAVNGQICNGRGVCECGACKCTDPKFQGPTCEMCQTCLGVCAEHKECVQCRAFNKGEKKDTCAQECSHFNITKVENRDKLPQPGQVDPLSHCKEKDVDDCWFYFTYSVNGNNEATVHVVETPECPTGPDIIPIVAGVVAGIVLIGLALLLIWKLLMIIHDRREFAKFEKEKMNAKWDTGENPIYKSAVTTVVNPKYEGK
# UniProt P27449: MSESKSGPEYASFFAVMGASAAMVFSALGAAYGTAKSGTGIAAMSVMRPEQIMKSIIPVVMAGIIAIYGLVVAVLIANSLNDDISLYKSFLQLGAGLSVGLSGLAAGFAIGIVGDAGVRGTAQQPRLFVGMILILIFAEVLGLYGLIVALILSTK
# No constants are given. Whether binding was seen depends on the method and setting. Binding seen in cells or lysates may run through a third protein. Some binding calls cover weakened binding; strength is not graded here.
# Molecular target: T1, T7-epitope tagged bovine β1 integrin (bovine, UniProt P53712 21-798)
# T1 construct: mature; Expressed in HEK293 cells and detected in lysates with anti-T7 antibody; also called T7-β1 integrin; T7 tagged β1; not shown: le
# Assay: co-immunoprecipitation with anti-HSV antibody from HEK293 lysates, anti-T7 Western blot
substance,measurement,value
"HSV-tagged 16K (16-kDa subunit of vacuolar H+-ATPase, full length) (from UniProt P27449 1-155)",binding,binds
